These are yes or no findings as the source states them, for the method shown. In cells and extracts the contact can be indirect. A yes stands for co-enrichment or nearness to the bait. Other partners may have been found.
Biological target: T1, SFB-IKKβ (kappa-B kinase subunit beta) (UniProt O14920)
T1 sequence: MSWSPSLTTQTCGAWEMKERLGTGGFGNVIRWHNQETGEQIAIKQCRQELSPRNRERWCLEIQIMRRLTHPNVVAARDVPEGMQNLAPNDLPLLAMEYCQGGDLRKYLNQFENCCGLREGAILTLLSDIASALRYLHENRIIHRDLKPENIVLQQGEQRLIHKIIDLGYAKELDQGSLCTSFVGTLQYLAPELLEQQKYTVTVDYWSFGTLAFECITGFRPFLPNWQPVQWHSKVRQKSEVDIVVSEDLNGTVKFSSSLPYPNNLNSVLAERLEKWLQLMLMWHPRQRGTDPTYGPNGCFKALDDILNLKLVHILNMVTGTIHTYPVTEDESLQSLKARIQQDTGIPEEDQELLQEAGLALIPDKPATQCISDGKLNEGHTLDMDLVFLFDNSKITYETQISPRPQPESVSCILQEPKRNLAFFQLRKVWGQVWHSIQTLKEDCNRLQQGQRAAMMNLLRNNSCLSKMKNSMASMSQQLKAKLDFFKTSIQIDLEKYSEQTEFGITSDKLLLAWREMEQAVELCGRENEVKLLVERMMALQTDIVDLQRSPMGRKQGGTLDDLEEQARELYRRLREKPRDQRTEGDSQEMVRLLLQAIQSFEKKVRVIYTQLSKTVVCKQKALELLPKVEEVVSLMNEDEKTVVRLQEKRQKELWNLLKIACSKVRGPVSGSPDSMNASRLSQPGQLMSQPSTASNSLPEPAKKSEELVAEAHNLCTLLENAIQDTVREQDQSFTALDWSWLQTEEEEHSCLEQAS
Assay: affinity purification with mass spectrometry; SFB-IKKβ complexes immunoprecipitated from A549 cells at 0 kPa or 5 kPa compression (1 h); SDS-PAGE, trypsin digestion, LC-MS/MS, LFQ with MaxQuant

Chains of the proteins cited; added tags and fusions are not shown.
UniProt Q8NEV1: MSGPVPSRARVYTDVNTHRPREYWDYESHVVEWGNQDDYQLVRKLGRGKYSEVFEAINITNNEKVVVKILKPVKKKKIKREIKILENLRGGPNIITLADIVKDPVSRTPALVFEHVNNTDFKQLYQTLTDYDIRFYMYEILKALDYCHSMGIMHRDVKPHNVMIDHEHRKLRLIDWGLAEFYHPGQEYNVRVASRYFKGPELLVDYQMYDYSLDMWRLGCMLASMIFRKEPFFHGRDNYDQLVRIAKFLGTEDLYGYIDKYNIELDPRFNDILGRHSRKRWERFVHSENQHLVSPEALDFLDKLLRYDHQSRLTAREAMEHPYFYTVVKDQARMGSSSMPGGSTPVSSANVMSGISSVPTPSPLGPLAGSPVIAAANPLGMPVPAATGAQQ

Q: Which binding does the source give for “casein kinase II subunit alpha 3 (CSK23), endogenous (from UniProt Q8NEV1 1-391) (enzyme)” here?
A: binds

Reference: PMC12824153
